## Primary screen of a compound library

Each number is a percent effect as filed. The controls that fix the scale are not given in the record; negative values are as filed. The compounds are a random part of those screened. Two or more numbers in one place are separate tests of the same structure; such repeats can differ widely.

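Cell assay of Leishmania donovani living inside macrophages; the read-out is not stated. Concentration: 30 µM. Higher reads as stronger inhibition (inferred: compounds with an IC50 in retests scored well above the rest). Size under these conditions: about 69,000 compounds, about 1,000 of them at 50% or above in at least one test.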

| # | structure | effect |
|---|---|---|
| 1 | `Cn1cccc1CCC(=O)N1CCC2(CC1)c1ccccc1CC2O` (stereo not shown) | 13.58 |
| 2 | `CCn1c(C)cc(C(=O)N2C[C@@H](C(=O)O)[C@H](c3ccccc3)C2)c1C` | 32.06 |
| 3 | `CS(=O)(=O)N1Cc2nccn2CC(CNC(=O)c2cccnc2)C1.O=C(O)C(F)(F)F` (stereo not shown) | 24.39 |
| 4 | `CCn1ncc2c1C(COC)CN(Cc1ccc(C)o1)C2` (stereo not shown) | 0.2179 |
| 5 | `COC(=O)c1ccc(NCc2csc(C)n2)cc1Cl` | -0.05354 |
| 6 | `CCc1nc(C2CCCN(C(=O)NC(C)C)C2)no1` (stereo not shown) | -12.75 |
| 7 | `CN(C)C(c1ccccn1)[C@H]1CC[C@H](CNC(=O)C2CC2)CC1` (stereo partly shown) | 22.61 |
| 8 | `CC(C)Oc1ccc(CN2CCC(Cc3nnc(CO)n3C)CC2)cc1` | -9.496 |
| 9 | `COCC(=O)NC(C)c1sc(-c2ccccc2F)nc1C` (stereo not shown) | 18.86 |
| 10 | `CC(=O)N1CCC(NC(=O)NCc2ncc(-c3ccccc3)o2)CC1` | 18.63 |
| 11 | `CCOC(=O)CNC(=O)c1cccnc1Sc1cc(OC)ccc1OC` | 20.01 |
| 12 | `COCCN1CCC2(CCC1=O)CN(C1CCOCC1)CCN2C` (stereo not shown) | 20.32 |
| 13 | `CN(C)C(=O)NCc1ncn2c1CN(Cc1cccs1)CCC2.O=C(O)C(F)(F)F.O=C(O)C(F)(F)F` | 15.5 |
| 14 | `Cc1nnc(CCNC(=O)C(c2ccc(F)cc2)N(C)C)[nH]1` (stereo not shown) | 12.29 |
| 15 | `[H][C@@]12COC[C@]1(COc1cccnc1)CN(C(=O)c1cocn1)C2` | 30.88 |
| 16 | `Cc1n[nH]c(C2CN(C(=O)CCc3ccco3)CCO2)n1` (stereo not shown) | 23.47 |
| 17 | `CCOc1ccc(S(=O)(=O)NCCc2ccc(N(C)C)cc2)cc1C` | 39.81 & 44.03 |
| 18 | `[H][C@]12CCN(C(=O)c3ccoc3)[C@@]1([H])CC[C@H](COCc1ccncc1)O2` | 23.62 |
| 19 | `O=C(CCN1CCCC(CC2CC2)(C(=O)O)C1)NC1CCCC1` (stereo not shown) | 3.94 |
| 20 | `COc1cc(CCC(=O)NC2CCN(C)CC2)ccc1OCC(F)(F)F` | 16.81 |
| 21 | `O=C(NCCN1CCC(c2cccs2)CC1)Nc1cccs1` | 29.53 |
| 22 | `CC(C1CCN(C(=O)c2coc(CN3CCOCC3)c2)CC1)N(C)C` (stereo not shown) | 37.98 |
| 23 | `CC(=O)Nc1nc(C(=O)N2CCCC2Cn2cc(C)cn2)cs1` (stereo not shown) | -1.716 |
| 24 | `O=C(c1csc(-c2ncccn2)n1)N1CCN2CCCCC2C1` (stereo not shown) | 12.84 |
| 25 | `COc1cc(CCC(C)O)c(OC)c2c1OCO2` (stereo not shown) | -18.37 |
| 26 | `O=C(O)C(F)(F)F.[H][C@@]12CCN(Cc3ccc(CC)o3)C[C@@]1([H])O[C@@H](c1nnc(C)[nH]1)C2` | 23.94 |
| 27 | `CC(C)(CO)Nc1cc(-c2cn[nH]c2)ncn1.Cl` | 15.76 & 9.969 |
| 28 | `CCc1ccc(-c2ncc3c(n2)N(C)CCN(CCN(C)C)C3=O)cc1` | 72.33 & 110 |
| 29 | `COc1ccc(-c2nc(C)cc(SCC(N)=O)n2)cc1` | 14.09 |
| 30 | `Cc1nc(CN2CCCC(CCc3ccc(F)cc3F)C2)c[nH]1` (stereo not shown) | 30.76 |
| 31 | `CN(Cc1nnc(C2CC2)n1C)C1CCN(CCS(C)(=O)=O)C1` (stereo not shown) | 28.45 |
| 32 | `Cc1noc(C)c1-c1cncc(C2CCCN2Cc2cn(C)cn2)n1` (stereo not shown) | 19.34 |
| 33 | `Cc1noc(C)c1CS(=O)(=O)CC(=O)N1CCc2sccc2C1` | -14.94 |
| 34 | `Cc1oc(C(=O)O)cc1S(=O)(=O)Nc1ccc(Cl)c(F)c1` | -23.58 |
| 35 | `Cc1nn(CC(=O)n2cccn2)c(C)c1I` | -4.701 |
| 36 | `COc1ccnc(CNc2nc(C)nc3ccsc23)c1` | 56.7 |
| 37 | `CCS(=O)(=O)N1CCN(CC2CC2)c2ncccc2C1` | 22.91 |
| 38 | `O=C(Cc1ccc2c(c1)OCCO2)NC1CCCCC1` | 3.193 |
| 39 | `Fc1cc(Cl)cnc1N1CCCC(c2nccn2Cc2ccccn2)C1` (stereo not shown) | 14.99 |
| 40 | `CN(Cc1ccncc1)C(=O)c1ccc(F)c(NS(C)(=O)=O)c1` | 21.22 |
| 41 | `Fc1cccc(C2CCCCN2Cc2nc(-c3cnccn3)no2)c1` (stereo not shown) | 13.98 |
| 42 | `CN1CCN(C(=O)c2cncc(CC3CCCN(C)C3)c2)CC1` (stereo not shown) | -10.7 |
| 43 | `[H][C@@]12COC[C@]1(COCc1cccnc1)CN(C(=O)c1ccc(C)nc1)C2` | 6.671 & -8.429 |
| 44 | `COCCn1c(=O)n(C)c(=O)c2ccc(C3CCN(C(C)=O)CC3)nc21` | -0.03232 |
| 45 | `CSCc1nc(CCNC(=O)C(N)c2c(C)n[nH]c2C)cs1` (stereo not shown) | 5.241 |
| 46 | `Cc1nc(N2CCN(C)CC2)ncc1C(=O)N1CCN(C)CC1` | 5.404 |
| 47 | `CN(CC1CCOC1)c1ncc(Br)cn1` (stereo not shown) | 11.22 |
| 48 | `Cn1cc(S(=O)(=O)NC(=O)C2(c3ccccc3)CCC2)cn1` | 17.57 |
| 49 | `O=C(O)C(F)(F)F.O=C(O)C(F)(F)F.[H][C@@]12C[C@@H](OCc3cccnc3)CN1CCN(C(=O)c1ccco1)C2` | 15.93 |
| 50 | `CCn1c(C)cc(C(=O)N2CCc3nnc(N)cc3C2)c1C` | 17.57 |
| 51 | `Cc1nc(CN(C)C(=O)c2cccc(CC3CCNCC3)c2)no1` | -15.84 |
| 52 | `Fc1cccc(-n2ccc(CN3CCCC3Cn3cccn3)n2)c1` (stereo not shown) | 27.33 |
| 53 | `O=C(CNCCn1cccn1)NCC1(c2ccccc2)CCC1` | 36.86 |
| 54 | `Cc1cc(C)c(CNC(=O)N(C)Cc2nnc3n2CCC3)c(=O)[nH]1` | 8.948 |
| 55 | `Cc1n[nH]c(C)c1NC(=O)Nc1cccnc1N1CCCC1` | -22.16 |
| 56 | `CC1(C)CC2(CCO1)NC(=O)c1cc(Br)ccc1-n1nnnc12` (stereo not shown) | 13.56 |
| 57 | `CC(=O)N1CCc2c(nc(N(C)C)nc2NCCC2CCCCO2)C1` (stereo not shown) | 15.53 |
| 58 | `CC(=O)N1N=C(c2ccccc2)OC1C(=O)NCC(=O)OC(C)(C)C` (stereo not shown) | 28.41 |
| 59 | `O=C(CN1CCN(CC2CCOc3ccccc3C2)CC1)N1CCCC1` (stereo not shown) | -4.734 |
| 60 | `CC(NC(=O)NCC(C)(C)O)c1ccc(-c2cncnc2)cc1` (stereo not shown) | 2.349 |
| 61 | `CCOc1ccccc1-c1noc(CN2CCCC(O)C2)n1` (stereo not shown) | 9.774 |
| 62 | `Cc1ccc(CNC(=O)NCc2csc(C)n2)cn1` | 22.66 |
| 63 | `CCn1cc(N)c(C(=O)NCc2cnn(C)c2)n1` | -6.774 |
| 64 | `OCC1CCCCN1Cc1nc(Cc2ccccc2)no1` (stereo not shown) | 2.604 |
| 65 | `COCC(=O)N1CCN(C(=O)C2CCCCC2)[C@@H](C(=O)OC)C1` | -8.16 |
| 66 | `Cc1nnnn1-c1cc(NCc2cc(C#N)ccc2F)ccc1F` | -24.07 |
| 67 | `[H][C@@]12CN(c3cc(OC)ncn3)C[C@H](C(=O)NC3CC3)[C@]1([H])CCO2` | -0.3099 |
| 68 | `COCCN(Cc1cccc(C#N)c1)Cc1nnsc1Cl` | -36.11 |
| 69 | `CC(NC(=O)c1cccs1)C(=O)NCc1ccccn1` (stereo not shown) | 4.073 |
| 70 | `Cc1cc(NC2CCc3nc(C)nn3C2)n2ncnc2n1` (stereo not shown) | 1.651 |
| 71 | `Cc1nc2ccccc2c(=O)n1CCCC(=O)N1CCNC(=O)CC1` | 19.96 |
| 72 | `O=C(Nc1cccc(OCc2ccc(F)cc2)c1)C1COCCO1` (stereo not shown) | -0.2976 |
| 73 | `O=C(Nc1cccc(F)c1)C1CCCN1c1nccs1` (stereo not shown) | -27.05 |
| 74 | `Cc1occc1C(=O)NCc1ccc(N2CCCC(C(N)=O)C2)cc1` (stereo not shown) | -23.29 |
| 75 | `CCc1nc(C2CCCN2Cc2nc(Cc3ccccc3)no2)no1` (stereo not shown) | -7.115 |
| 76 | `CC(C)(C)c1ncc2c(n1)CN(C(=O)c1ccncc1)C2` | 24.15 |
| 77 | `CC(C)c1noc(C(C)N2CCN(c3ccc(C#N)cn3)CC2)n1` (stereo not shown) | 5.343 |
| 78 | `O=C(c1ccoc1)N1CCn2nc(CN3CCSCC3)cc2C1` | -14.83 |
| 79 | `O=C(c1cc2c(s1)CCOC2)N1CCCCC1Cn1cccn1` (stereo not shown) | 27.97 |
| 80 | `CN1CCCC2(CC1)CCN(C(=O)CCc1ccccc1O)CC2` | -6.807 |
| 81 | `CN(C)CC(c1ccccc1)N(C)C(=O)c1cccc(NCC(=O)O)c1` (stereo not shown) | 9.371 |
| 82 | `Cc1cccc2c1nc(COCC(=O)O)n2-c1cnc(N)cn1` | 30.05 |
| 83 | `COc1ccc(C[C@H]2CNCC[C@H]2OC)cc1.O=C(O)C(F)(F)F` | 18.04 |
| 84 | `Cc1ccc(C)c(C(=O)N2CCN(C(=O)Cc3ccccn3)CC2)c1` | 17.33 |
| 85 | `[H][C@@]12CCC(=O)N(CCc3ccccc3)[C@]1([H])CCN(S(=O)(=O)CC)C2` | 17.99 |
| 86 | `Cc1ccc(OCCN(C)C(=O)CCCC(N)=O)c(C)c1` | -8.504 |
| 87 | `Cc1cc(C)cc(CN2CCN(Cc3cc(C#N)n(C)c3)CC2=O)c1` | 5.214 |
| 88 | `CC(NC(=O)NCCCn1cncn1)c1ccc2c(c1)OCCO2` (stereo not shown) | 16.27 |
| 89 | `COC(=O)c1ccc(N2CCC(C(O)c3ccccc3)CC2)nn1` (stereo not shown) | 28.61 |
| 90 | `CC(C)CN1CC(C(=O)NCc2ccnc(-n3cccn3)c2)CC1=O` (stereo not shown) | -19.24 |

Data taken from ChEMBL document CHEMBL3988442, “University of Dundee, Small-Polar-MMV Screening Library” (2021).